# Results from PMC7481779.
# Amino acid sequences for entries named in this document (tags omitted). Residues count along the entry.
# UniProt P54578: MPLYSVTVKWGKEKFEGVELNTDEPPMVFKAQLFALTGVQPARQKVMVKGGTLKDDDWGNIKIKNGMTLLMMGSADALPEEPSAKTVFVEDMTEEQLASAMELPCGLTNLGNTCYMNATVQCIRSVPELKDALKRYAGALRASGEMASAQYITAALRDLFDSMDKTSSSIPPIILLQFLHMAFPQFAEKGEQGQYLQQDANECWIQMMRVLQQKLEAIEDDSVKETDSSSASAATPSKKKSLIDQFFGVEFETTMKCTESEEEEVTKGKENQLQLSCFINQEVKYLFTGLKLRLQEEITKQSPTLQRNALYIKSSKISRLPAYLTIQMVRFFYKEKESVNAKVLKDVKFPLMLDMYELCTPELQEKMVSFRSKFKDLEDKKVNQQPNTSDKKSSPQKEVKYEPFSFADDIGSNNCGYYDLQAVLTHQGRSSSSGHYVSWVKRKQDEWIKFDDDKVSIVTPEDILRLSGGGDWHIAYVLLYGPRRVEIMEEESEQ
# UniProt P35968, residues 20-1356: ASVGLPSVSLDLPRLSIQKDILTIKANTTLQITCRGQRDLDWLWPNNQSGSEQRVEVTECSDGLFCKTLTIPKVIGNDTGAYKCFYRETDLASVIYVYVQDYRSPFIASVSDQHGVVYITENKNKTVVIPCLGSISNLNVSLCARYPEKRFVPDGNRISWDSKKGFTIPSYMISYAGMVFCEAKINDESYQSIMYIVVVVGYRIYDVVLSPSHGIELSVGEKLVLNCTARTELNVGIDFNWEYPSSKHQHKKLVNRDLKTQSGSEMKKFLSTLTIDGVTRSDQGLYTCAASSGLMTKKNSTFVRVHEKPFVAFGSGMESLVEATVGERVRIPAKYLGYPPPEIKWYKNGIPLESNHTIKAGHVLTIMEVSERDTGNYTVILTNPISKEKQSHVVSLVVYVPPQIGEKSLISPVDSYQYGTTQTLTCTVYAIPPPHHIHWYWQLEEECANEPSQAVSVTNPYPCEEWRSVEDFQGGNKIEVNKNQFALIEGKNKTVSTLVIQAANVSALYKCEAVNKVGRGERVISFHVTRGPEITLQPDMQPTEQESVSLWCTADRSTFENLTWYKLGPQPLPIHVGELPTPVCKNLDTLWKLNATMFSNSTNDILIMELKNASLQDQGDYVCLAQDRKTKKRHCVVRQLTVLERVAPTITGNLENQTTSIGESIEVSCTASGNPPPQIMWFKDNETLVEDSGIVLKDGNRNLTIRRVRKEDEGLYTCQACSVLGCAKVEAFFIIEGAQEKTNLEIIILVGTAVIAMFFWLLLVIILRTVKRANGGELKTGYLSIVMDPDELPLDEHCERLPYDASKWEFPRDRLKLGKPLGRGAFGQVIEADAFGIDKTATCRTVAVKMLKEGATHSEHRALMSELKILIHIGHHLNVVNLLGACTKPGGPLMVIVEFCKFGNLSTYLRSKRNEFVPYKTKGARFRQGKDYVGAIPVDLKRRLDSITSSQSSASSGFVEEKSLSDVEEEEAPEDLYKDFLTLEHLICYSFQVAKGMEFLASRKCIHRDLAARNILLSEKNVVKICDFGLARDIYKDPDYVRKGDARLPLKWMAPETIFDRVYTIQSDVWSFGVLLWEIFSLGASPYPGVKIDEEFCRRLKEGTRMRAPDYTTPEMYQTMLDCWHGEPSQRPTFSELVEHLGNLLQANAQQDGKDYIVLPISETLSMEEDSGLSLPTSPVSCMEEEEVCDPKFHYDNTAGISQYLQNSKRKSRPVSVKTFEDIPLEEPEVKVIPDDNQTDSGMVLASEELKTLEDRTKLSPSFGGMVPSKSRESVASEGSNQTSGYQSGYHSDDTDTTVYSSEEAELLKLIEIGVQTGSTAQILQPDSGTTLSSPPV
# These are yes or no findings as the source states them, for the method shown. Binding seen in cells or lysates may run through a third protein. Some entries that bind do so weakly or less than the wild type.
# Molecular target: USP14 (human (endogenous in human TNBC cells)) (UniProt P54578)
# Assay: co-IP; cell lysates in IP lysis buffer incubated with USP14 antibody (or IgG) all night at 4 °C, magnetic beads 1 h, western blot for VEGFR2; control cells and cells with PCAT6 knocked down
substance,measurement,value
VEGFR2 (from UniProt P35968 20-1356) (receptor),binding,binds
